Source: patent publication US20260008817A1, “CYCLIC PEPTIDE OR SALT THEREOF, AND USES THEREOF” (FUJIFILM Corporation, priority 2023, published 2026)
These are yes or no findings as the source states them, for the method shown. Some entries that bind do so weakly or less than the wild type.

Chains of the proteins cited; added tags and fusions are not shown. Lines headed by an entry give the natural chain unless they say otherwise; changes in a name come on top. A line that says so, or that is headed by a name, gives the form on record, which may keep a tag or linker. Residues count along the entry.
FGFR1 Protein, Human, Recombinant (His Tag) (Sino Biological, 10616-H08H) (P11362, form named): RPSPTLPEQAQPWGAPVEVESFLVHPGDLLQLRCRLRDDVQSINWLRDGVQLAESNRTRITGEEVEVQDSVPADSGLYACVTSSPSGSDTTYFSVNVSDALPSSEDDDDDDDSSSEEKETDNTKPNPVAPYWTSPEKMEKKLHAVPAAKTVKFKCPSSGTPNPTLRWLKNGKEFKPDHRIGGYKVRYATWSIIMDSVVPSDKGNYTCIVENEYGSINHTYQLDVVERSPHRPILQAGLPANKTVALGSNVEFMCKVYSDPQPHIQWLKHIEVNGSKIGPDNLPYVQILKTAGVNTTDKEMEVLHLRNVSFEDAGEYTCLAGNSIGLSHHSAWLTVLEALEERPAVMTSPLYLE
UniProt P22607, residues 23-375: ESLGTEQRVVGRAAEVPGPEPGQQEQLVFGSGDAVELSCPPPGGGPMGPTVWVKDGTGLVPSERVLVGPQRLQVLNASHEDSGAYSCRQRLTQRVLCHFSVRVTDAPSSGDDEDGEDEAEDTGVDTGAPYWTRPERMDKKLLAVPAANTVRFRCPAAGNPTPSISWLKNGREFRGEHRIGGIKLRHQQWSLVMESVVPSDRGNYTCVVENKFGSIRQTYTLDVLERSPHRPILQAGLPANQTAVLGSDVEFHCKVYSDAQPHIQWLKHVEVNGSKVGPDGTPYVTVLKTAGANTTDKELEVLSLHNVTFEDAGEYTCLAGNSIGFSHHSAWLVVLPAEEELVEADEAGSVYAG

Legend:
[1] = molecular target: FGFR1 Protein, Human, Recombinant (His Tag) (Sino Biological, 10616-H08H) (human) (UniProt P11362); experiment: SPR, FGFR over immobilized peptide
[2] = molecular target: FGFR3 Protein, Human, Recombinant (ECD, His Tag) (Sino Biological, 16044-H08H) (human) (UniProt P22607); experiment: SPR, FGFR over immobilized peptide

binding [1]: binds
binding [2]: binds
Binder: ACVWTFDRHAQEISQALHKVKKK ((C) and (K(acetyl)) joined by a thioether ring) [cyclic peptide SEQ ID NO: 335]
